Here are results for 79 compounds from the supplement of paper PMC5355238.

The structures appear in SMILES notation. Where a name gives a salt, the structure may show the parent alone. ± gives the standard deviation of the averaged measurements. The list shows a part of the results. Repeats are few or missing, and single values can be far off.

The test system of the experiment is Reh. Put plainly: S-phase gammaH2AX median, Z-score vs plate median (drug alone); higher = more S-phase DNA damage. The conditions noted are these: MK1775 concentration 0 nM; 10 µM; 4 h.
`CCN(CCCOc1ccc2c(Nc3cc(CC(=O)Nc4cccc(F)c4)[nH]n3)ncnc2c1)CCOP(=O)(O)O` [Barasertib (AZD1152-HQPA)]: the “S-phase gammaH2AX median (Z-score)” value was 0.0545.

As to `O=c1[nH]nc(Sc2ncc([N+](=O)[O-])s2)n1-c1ccc2c(c1)OCCO2`, the “S-phase gammaH2AX median (Z-score)” value worked out at 0.498.

`CCN1CCC[C@H]1CNC(=O)c1c(O)c(Cl)cc(Cl)c1OC` [S(+)-Raclopride L-tartrate]: the “S-phase gammaH2AX median (Z-score)” value was -0.314.

For `O=C(O)c1cccnc1C(=O)O` [Quinolinic acid], the “S-phase gammaH2AX median (Z-score)” value is -0.0993.

Consider `CN1CCN(c2nc(C3=C(c4c[nH]c5ccccc45)C(=O)NC3=O)c3ccccc3n2)CC1` [Sotrastaurin (AEB071)], for which the “S-phase gammaH2AX median (Z-score)” value is -0.113.

In the case of `COc1cc2ncnc(Nc3ccc(F)c(Cl)c3)c2cc1OCCCN1CCOCC1` [Gefitinib (Iressa)], the “S-phase gammaH2AX median (Z-score)” value is -0.0476.

`CN1CCC[C@@H]1CCO[C@](C)(c1ccccc1)c1ccc(Cl)cc1` [Clemastine fumarate]: the “S-phase gammaH2AX median (Z-score)” value was found to be 0.0563.

For the compound `Nc1nc2[nH]cc(CCc3ccc(C(=O)N[C@@H](CCC(=O)O)C(=O)O)cc3)c2c(=O)[nH]1` [Pemetrexed], the “S-phase gammaH2AX median (Z-score)” value is -0.0205.

On to `COCCc1ccc(OCC(O)CNC(C)C)cc1` (stereo not drawn) [(?)-Metoprolol (+)-tartrate], for which the “S-phase gammaH2AX median (Z-score)” value was -0.118.

For `CC(C)Cc1ccc(C(C)C(=O)O)cc1` (centres undefined) [(?)-Ibuprofen], the “S-phase gammaH2AX median (Z-score)” value stood at 0.0472.

For the compound `O=C(O)C1(C(=O)O)CCC1.[NH2-].[NH2-].[Pt+2]` [Carboplatin], the “S-phase gammaH2AX median (Z-score)” value worked out at 0.0821 ± 0.14.

In the case of `COC(=O)C(N)Cc1ccc(Cl)cc1` (racemic) [DL-p-Chlorophenylalanine methyl ester hydrochloride], the “S-phase gammaH2AX median (Z-score)” value was -0.0233.

With `O=c1c(O)c(-c2ccc(O)c(O)c2)oc2cc(O)cc(O)c12` [Quercetin dihydrate], the “S-phase gammaH2AX median (Z-score)” value is 0.18.

On to `O=c1c(O)c(-c2ccc(O)c(O)c2)oc2cc(O)cc(O)c12` [Quercetin (Sophoretin)], for which the “S-phase gammaH2AX median (Z-score)” value is 0.116.

Regarding `N[C@H](C(=O)O)[C@H]1C[C@@H]1C(=O)O` [(2S,1'S,2'S)-2-(carboxycyclopropyl)glycine], the “S-phase gammaH2AX median (Z-score)” value was -0.0233.

As to `CCc1cc(-c2n[nH]c(C)c2-c2ccc3c(c2)OCCO3)c(O)cc1O`, the “S-phase gammaH2AX median (Z-score)” value was -0.0128.

Consider `COc1ncc(-c2ccc3nccc(-c4ccnnc4)c3c2)cc1NS(=O)(=O)c1ccc(F)cc1F`, for which the “S-phase gammaH2AX median (Z-score)” value was -0.263.

Regarding `N=C(N)NCCCCN` [Agmatine sulfate], the “S-phase gammaH2AX median (Z-score)” value was -0.0175.

`CCCCNc1ccc(C(=O)OCCN(C)C)cc1` [Tetracaine hydrochloride]: the “S-phase gammaH2AX median (Z-score)” value stood at 0.407.

With `COc1ccc(NC(=O)c2ccc(-c3ccc(-c4noc(C)n4)cc3C)cc2)cc1N1CCN(C)CC1`, the “S-phase gammaH2AX median (Z-score)” value is -0.182.

In the case of `CCCCCOC(=O)Nc1nc(=O)n([C@@H]2O[C@H](C)[C@@H](O)[C@H]2O)cc1F` [Capecitabine (Xeloda)], the “S-phase gammaH2AX median (Z-score)” value was found to be 0.208.

As for `COc1ccccc1N1CCN(CCCCNC(=O)c2ccc3ccccc3c2)CC1`, the “S-phase gammaH2AX median (Z-score)” value came out at 0.0447.

With `O=C1[C@H](CC[C@H](O)c2ccc(F)cc2)[C@@H](c2ccc(O)cc2)N1c1ccc(F)cc1` [Ezetimibe (Zetia)], the “S-phase gammaH2AX median (Z-score)” value is -0.0561.

Regarding `Cc1cnc(C(=O)NCCc2ccc(S(=O)(=O)NC(=O)NC3CCCCC3)cc2)cn1` [Glipizide], the “S-phase gammaH2AX median (Z-score)” value came to 0.107.

On to `CC(C)NC[C@H](O)COc1cccc2[nH]ccc12` [S(-)-Pindolol], for which the “S-phase gammaH2AX median (Z-score)” value was 0.0654 ± 0.086.

Consider `COc1ccc(C2CC(c3ccccc3)=NN2c2ccc(S(N)(=O)=O)cc2)cc1` (centres undefined), for which the “S-phase gammaH2AX median (Z-score)” value is -0.0522.

Turning to `CCCC(=O)[O-].[Na+]` [Sodium butyrate], the “S-phase gammaH2AX median (Z-score)” value is -0.0653.

As to `Cc1cc(Nc2cc(N3CCN(C)CC3)nc(/C=C/c3ccccc3)n2)n[nH]1`, the “S-phase gammaH2AX median (Z-score)” value is -0.152.

Take `COC(=O)C1=C(C)NC(C)=C(C(=O)OCCN(C)Cc2ccccc2)C1c1cccc([N+](=O)[O-])c1` (centres undefined) [Nicardipine hydrochloride]: the “S-phase gammaH2AX median (Z-score)” value was -0.111.

Regarding `Cc1ccccc1CNc1ncnc2c1ncn2[C@@H]1O[C@H](CO)[C@@H](O)[C@H]1O` [Metrifudil], the “S-phase gammaH2AX median (Z-score)” value was -0.66.

In the case of `CC1(C)CNc2cc(NC(=O)c3cccnc3NCc3ccncc3)ccc21` [Motesanib Diphosphate], the “S-phase gammaH2AX median (Z-score)” value is -0.0398.

For `CC(C)NCC(O)c1ccc(O)c(O)c1` (single isomer, unassigned; (-)) [(-)-Isoproterenol hydrochloride], the “S-phase gammaH2AX median (Z-score)” value amounted to 0.0661.

`Cc1ccccc1C(OCCN(C)C)c1ccccc1` (centres undefined) [Orphenadrine hydrochloride]: the “S-phase gammaH2AX median (Z-score)” value is -0.0781.

As to `CCCCCCCCCCCCCCCCCC(=O)NCC(COP(=O)([O-])OCC[N+](C)(C)C)OCC` (racemic) [rac-2-Ethoxy-3-octadecanamido-1-propylphosphocholine], the “S-phase gammaH2AX median (Z-score)” value is -0.0819.

Consider `C=CCn1c(=O)c2cnc(Nc3ccc(N4CCN(C)CC4)cc3)nc2n1-c1cccc(C(C)(C)O)n1`, for which the “S-phase gammaH2AX median (Z-score)” value worked out at 4.25.

`CC(=O)OCC1=C(C(=O)O)N2C(=O)[C@@H](NC(=O)Cc3cccs3)[C@H]2SC1` [Cephalothin sodium]: the “S-phase gammaH2AX median (Z-score)” value is -0.0388.

`O=C1CCC(N2C(=O)c3ccccc3C2=O)C(=O)N1` (centres undefined) [(?)-Thalidomide]: the “S-phase gammaH2AX median (Z-score)” value is -0.214.

On to `CNCCCN1c2ccccc2CCc2ccccc21` [Desipramine hydrochloride], for which the “S-phase gammaH2AX median (Z-score)” value was -0.12.

`CC(N)C(=O)OC(C)(C)Cc1ccc(Cl)cc1` (centres undefined) [Alaproclate hydrochloride]: the “S-phase gammaH2AX median (Z-score)” value was -0.00971.

For the compound `CN(CCOc1ccc(C[C@H](Nc2ccccc2C(=O)c2ccccc2)C(=O)O)cc1)c1ccccn1`, the “S-phase gammaH2AX median (Z-score)” value is 0.161.

As for `CCC(C)n1ncn(-c2ccc(N3CCN(c4ccc(OCC5COC(Cn6cncn6)(c6ccc(Cl)cc6Cl)O5)cc4)CC3)cc2)c1=O` (centres undefined) [Itraconazole (Sporanox)], the “S-phase gammaH2AX median (Z-score)” value was -0.0367.

On to `CCCn1cnc2c1c(=O)n(CCCCC(C)=O)c(=O)n2C` [Propentofylline], for which the “S-phase gammaH2AX median (Z-score)” value is -0.0166.

Consider `CCCCCCCCCCCCCCSCC(=O)O` [Tetradecylthioacetic acid], for which the “S-phase gammaH2AX median (Z-score)” value was -0.0601.

Take `O=C(O)CN(CCN(CC(=O)O)CC(=O)O)CCN(CC(=O)O)CC(=O)O` [Diethylenetriaminepentaacetic acid]: the “S-phase gammaH2AX median (Z-score)” value turned out to be 0.12.

On to `CC(C)(CO)Cc1cc(C(C)(C)C)c(O)c(C(C)(C)C)c1`, for which the “S-phase gammaH2AX median (Z-score)” value worked out at 0.0854.

Regarding `C#CCN(C)CCCOc1ccc(Cl)cc1Cl` [Clorgyline hydrochloride], the “S-phase gammaH2AX median (Z-score)” value amounted to 0.0781.

On to `CC(C)NCC(O)c1cc(O)cc(O)c1` (centres undefined) [Metaproterenol hemisulfate], for which the “S-phase gammaH2AX median (Z-score)” value was -0.596.

`CC(=O)/C(C)=N/O` [2,3-Butanedione monoxime]: the “S-phase gammaH2AX median (Z-score)” value stood at 0.0757.

In the case of `O=[N+]([O-])c1cc2nc(O)c(O)nc2cc1[N+](=O)[O-]`, the “S-phase gammaH2AX median (Z-score)” value is -0.164.

For the compound `COc1ccc(CCNC[C@@H](O)c2ccc(O)cc2)cc1OC` [R(-)-Denopamine], the “S-phase gammaH2AX median (Z-score)” value was -0.574.

For the compound `O=C(CCCN1CCC(O)(c2cccc(C(F)(F)F)c2)CC1)c1ccc(F)cc1` [Trifluperidol hydrochloride], the “S-phase gammaH2AX median (Z-score)” value was -0.574.

Take `CN/C(=N\c1ccc(C2=NNC(=O)CC2C)cc1)NC#N` (centres undefined): the “S-phase gammaH2AX median (Z-score)” value is 0.151.

For the compound `COc1ccccc1N1CCN(CCCNc2cc(=O)n(C)c(=O)n2C)CC1` [Urapidil hydrochloride], the “S-phase gammaH2AX median (Z-score)” value was -0.147.

With `Oc1cc2c(c(Cl)c1O)CCNCC2c1ccccc1` (centres undefined) [(?)-6-Chloro-PB hydrobromide], the “S-phase gammaH2AX median (Z-score)” value was -0.38.

For `O=C(O)CCCCC1CCSS1` (stereo not drawn) [(?)-alpha-Lipoic Acid], the “S-phase gammaH2AX median (Z-score)” value stood at 0.174.

Turning to `COCC(=O)O[C@]1(CCN(C)CCCc2nc3ccccc3[nH]2)CCc2cc(F)ccc2[C@@H]1C(C)C` [Mibefradil dihydrochloride], the “S-phase gammaH2AX median (Z-score)” value is -0.27.

For `O=c1c2ccccc2nc2n1CCc1c-2[nH]c2ccccc12` [Rutaecarpine], the “S-phase gammaH2AX median (Z-score)” value is -0.00473.

With `CN(C)c1ccccc1CN1CCCN(Cc2ccccc2N(C)C)C1c1ccncc1`, the “S-phase gammaH2AX median (Z-score)” value is -0.0112.

On to `OC[C@H]1O[C@@H](n2cnc3c2N=CNC[C@H]3O)C[C@@H]1O` [Pentostatin], for which the “S-phase gammaH2AX median (Z-score)” value came out at 0.0514.

In the case of `S=C(NCc1ccc2c(c1)OCO2)N1CCN(c2ncnc3c2oc2ccccc23)CC1` [Amuvatinib (MP-470)], the “S-phase gammaH2AX median (Z-score)” value turned out to be 0.08.

With `Cc1c(CCOc2ccc(C(=O)O)cc2)c2cc(Cl)ccc2n1C(c1ccccc1)c1ccccc1`, the “S-phase gammaH2AX median (Z-score)” value came out at 0.174.

On to `CC1(C)CCC2=C(O1)c1ccccc1C(=O)C2=O` [beta-Lapachone], for which the “S-phase gammaH2AX median (Z-score)” value was -0.0346.

As to `Cn1cnc([N+](=O)[O-])c1Sc1ncnc2[nH]cnc12` [Azathioprine (Azasan, Imuran)], the “S-phase gammaH2AX median (Z-score)” value stood at 0.147.

`Cn1cnc([N+](=O)[O-])c1Sc1ncnc2[nH]cnc12` [Azathioprine]: the “S-phase gammaH2AX median (Z-score)” value stood at 0.0175.

As to `COc1c2c(nc3ccccc13)OC(C(C)(O)CO)C2` (centres undefined) [Dubinidine], the “S-phase gammaH2AX median (Z-score)” value was 0.

As for `CC(C)C(=O)Nc1ccc([N+](=O)[O-])c(C(F)(F)F)c1` [Flutamide], the “S-phase gammaH2AX median (Z-score)” value was -0.0063.

For `CC(C)C(=O)Nc1ccc([N+](=O)[O-])c(C(F)(F)F)c1` [Flutamide (Eulexin)], the “S-phase gammaH2AX median (Z-score)” value was found to be 0.0197.

In the case of `CC1COc2c(N3CCN(C)CC3)c(F)cc3c(=O)c(C(=O)O)cn1c23` (centres undefined) [Ofloxacin], the “S-phase gammaH2AX median (Z-score)” value is 0.3.

Turning to `CCOC(=O)Nc1ccc(NCc2ccc(F)cc2)nc1N` [Flupirtine maleate], the “S-phase gammaH2AX median (Z-score)” value is -0.0882.

Turning to `O=C(O)/C=C/c1cnc[nH]1` [4-Imidazoleacrylic acid], the “S-phase gammaH2AX median (Z-score)” value worked out at 0.133.

As for `Clc1ccc(Nc2nnc(Cc3ccncc3)c3ccccc23)cc1` [Vatalanib dihydrochloride (PTK787)], the “S-phase gammaH2AX median (Z-score)” value is -0.0708.

For the compound `Cn1cc(-c2ccc3nnc(Sc4ccc5ncccc5c4)n3n2)cn1`, the “S-phase gammaH2AX median (Z-score)” value is -0.0367.

As to `Cc1cc(O)c2c(c1)C(=O)c1cc(O)cc(O)c1C2=O` [Emodin], the “S-phase gammaH2AX median (Z-score)” value was 0.198.

Take `COC(=O)c1ccc2c(C(=Nc3ccc(N(C)C(=O)CN4CCN(C)CC4)cc3)c3ccccc3)c(O)[nH]c2c1` [BIBF1120 (Vargatef)]: the “S-phase gammaH2AX median (Z-score)” value was -0.0561.

Turning to `Nc1ccc2c3c(cccc13)C(=O)NC2=O` [4-Amino-1,8-naphthalimide], the “S-phase gammaH2AX median (Z-score)” value was determined as 0.458.

As to `CN(C)CCCN1c2ccccc2CCc2ccccc21` [Imipramine hydrochloride], the “S-phase gammaH2AX median (Z-score)” value is 0.101.

`NC(CO)C(=O)NNCc1ccc(O)c(O)c1O` (centres undefined) [Benserazide hydrochloride]: the “S-phase gammaH2AX median (Z-score)” value is -0.0233.

On to `CCCn1c(=O)c2[nH]c(-c3ccc(OCC(=O)Nc4ccc(C#N)cc4)cc3)nc2n(CCC)c1=O`, for which the “S-phase gammaH2AX median (Z-score)” value stood at 0.00473.

As to `O=C1C(SCCO)=C(SCCO)C(=O)c2ccccc21`, the “S-phase gammaH2AX median (Z-score)” value stood at 10.6.
